For at least one compound, name, drawing or mass did not settle the structure.
Test system: FAK/AKT/GSK3β pathway
Assay: Western blot and immunoprecipitation of the FAK/AKT/GSK3β pathway and Snail in A549 spheroid culture
Type: cell-based, human
Conditions: LY 294002 10 μM

O=c1cc(N2CCOCC2)oc2c(-c3ccccc3)cccc12 [LY294002]
level of phospho-GSK-3 (FAK inhibitor 20 μM): decreased levels | phosphorylation of AKT (phospho-AKT level) (FAK inhibitor 20 μM): blocked | phosphorylation of FAK (phospho-FAK level) (FAK inhibitor 20 μM): but not | level of Snail: decreased levels

From patent publication US20170304386A1, “METHOD FOR INHIBITING SURVIVAL, TUMORIGENESIS AND METASTASIS OF CANCER CELLS AND/OR CANCER STEM CELLS” (priority 2014, published 2017)
